{"sequences": {"note": "By UniProt entry, the sequences of proteins in these tests, tags left out.", "UniProt Q04206": "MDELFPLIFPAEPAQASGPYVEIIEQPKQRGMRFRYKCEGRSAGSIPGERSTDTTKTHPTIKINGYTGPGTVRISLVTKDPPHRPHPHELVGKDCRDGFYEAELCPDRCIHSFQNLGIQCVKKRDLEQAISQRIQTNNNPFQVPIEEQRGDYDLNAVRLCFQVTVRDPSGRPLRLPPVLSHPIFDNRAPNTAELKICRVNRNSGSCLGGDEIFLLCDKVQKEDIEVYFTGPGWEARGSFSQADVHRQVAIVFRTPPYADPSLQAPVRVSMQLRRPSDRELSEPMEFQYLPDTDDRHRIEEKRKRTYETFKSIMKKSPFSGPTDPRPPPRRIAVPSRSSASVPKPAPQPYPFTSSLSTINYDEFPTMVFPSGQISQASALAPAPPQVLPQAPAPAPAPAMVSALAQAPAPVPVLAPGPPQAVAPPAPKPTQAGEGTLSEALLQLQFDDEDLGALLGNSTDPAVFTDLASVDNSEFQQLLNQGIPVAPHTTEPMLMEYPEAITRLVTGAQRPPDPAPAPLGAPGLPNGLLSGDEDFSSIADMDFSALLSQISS", "UniProt Q16665": "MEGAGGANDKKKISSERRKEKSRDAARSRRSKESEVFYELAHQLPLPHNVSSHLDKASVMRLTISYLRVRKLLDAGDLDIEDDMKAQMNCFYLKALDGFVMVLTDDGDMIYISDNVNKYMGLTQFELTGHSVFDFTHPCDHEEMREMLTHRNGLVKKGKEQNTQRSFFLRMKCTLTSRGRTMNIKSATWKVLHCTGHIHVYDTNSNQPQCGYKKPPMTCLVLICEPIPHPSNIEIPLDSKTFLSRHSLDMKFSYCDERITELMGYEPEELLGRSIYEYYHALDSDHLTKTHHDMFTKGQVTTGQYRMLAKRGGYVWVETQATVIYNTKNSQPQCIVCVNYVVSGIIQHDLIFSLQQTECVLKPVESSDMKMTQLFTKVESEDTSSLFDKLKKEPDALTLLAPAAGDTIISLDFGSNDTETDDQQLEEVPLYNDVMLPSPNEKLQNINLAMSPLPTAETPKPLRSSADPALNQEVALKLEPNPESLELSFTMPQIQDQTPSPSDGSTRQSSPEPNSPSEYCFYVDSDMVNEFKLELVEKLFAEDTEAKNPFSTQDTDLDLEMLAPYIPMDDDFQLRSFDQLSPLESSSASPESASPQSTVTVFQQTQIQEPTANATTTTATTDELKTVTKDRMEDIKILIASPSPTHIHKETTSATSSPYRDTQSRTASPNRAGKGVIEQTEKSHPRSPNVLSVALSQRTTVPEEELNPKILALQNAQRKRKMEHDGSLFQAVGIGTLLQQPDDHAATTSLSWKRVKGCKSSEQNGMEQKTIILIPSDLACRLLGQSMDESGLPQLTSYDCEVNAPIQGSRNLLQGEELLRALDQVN"}, "source": "paper PMC4694890", "key": {"[1]": {"biological_target": "T1, peroxisome proliferator-activated receptor α (human (endogenous in U87 and U251)) (UniProt Q07869)", "T1 sequence": "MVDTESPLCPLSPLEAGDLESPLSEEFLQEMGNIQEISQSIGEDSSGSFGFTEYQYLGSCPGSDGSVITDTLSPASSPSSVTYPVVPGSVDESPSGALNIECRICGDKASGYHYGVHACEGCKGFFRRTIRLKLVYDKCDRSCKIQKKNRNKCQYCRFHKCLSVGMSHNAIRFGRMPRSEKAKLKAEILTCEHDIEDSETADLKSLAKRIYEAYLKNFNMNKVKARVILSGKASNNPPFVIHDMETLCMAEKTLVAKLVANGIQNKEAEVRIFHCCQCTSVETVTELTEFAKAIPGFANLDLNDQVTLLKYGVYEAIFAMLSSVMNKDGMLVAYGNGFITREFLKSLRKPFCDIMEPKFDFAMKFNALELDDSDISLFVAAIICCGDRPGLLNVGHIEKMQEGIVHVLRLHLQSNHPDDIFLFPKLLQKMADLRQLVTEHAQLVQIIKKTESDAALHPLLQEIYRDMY", "assay": "co-IP; nuclear protein fraction of glioblastoma cells; anti-PPARα or anti-RelA overnight at 4°C, protein A/G plus-agarose, Western blot"}, "[2]": {"biological_target": "T1, peroxisome proliferator-activated receptor α (human (endogenous in U87 and U251))", "assay": "co-IP; cytoplasmic protein fraction of glioblastoma cells, untreated or treated with FF (100 μM); anti-PPARα or anti-RelA overnight at 4°C, protein A/G plus-agarose, Western blot"}, "[3]": {"biological_target": "NF-κB/RelA (human (endogenous in U87 and U251)) (UniProt Q04206)", "assay": "co-IP; nuclear protein fraction of glioblastoma cells; anti-PPARα or anti-RelA overnight at 4°C, protein A/G plus-agarose, Western blot"}}, "note": "These are yes or no findings as the source states them, for the method shown. Binding seen in cells or lysates may run through a third protein. Some binding calls cover weakened binding; strength is not graded here.", "data": [{"substance": "NF-κB/RelA (from UniProt Q04206 1-551)", "values": [{"measurement": "binding", "setting": "[1]", "value": "no binding (condition: in the nuclear fraction)"}, {"measurement": "binding", "setting": "[2]", "value": "binds"}]}, {"substance": "hypoxia inducible factor1 alpha (from UniProt Q16665 1-826)", "values": [{"measurement": "binding", "setting": "[3]", "value": "binds"}]}]}
